Data taken from PubChem BioAssay AID1439 (NMMLSC, 2008).
Out of some 220,000 compounds screened, about 770 (0.35%) were called active. This list was built around the results that the source calls inconclusive (neither active nor inactive); the mix of calls is not that of the screen. No stated cut-off is given here; in the data, active means binding response below about 49% or above about 150%; inconclusive means no clear call, values can overlap the other calls; inactive means in between.

Protein sequences, listed by entry. Tags and fused reporters are not part of them.
UniProt P09471, whole entry, looked up: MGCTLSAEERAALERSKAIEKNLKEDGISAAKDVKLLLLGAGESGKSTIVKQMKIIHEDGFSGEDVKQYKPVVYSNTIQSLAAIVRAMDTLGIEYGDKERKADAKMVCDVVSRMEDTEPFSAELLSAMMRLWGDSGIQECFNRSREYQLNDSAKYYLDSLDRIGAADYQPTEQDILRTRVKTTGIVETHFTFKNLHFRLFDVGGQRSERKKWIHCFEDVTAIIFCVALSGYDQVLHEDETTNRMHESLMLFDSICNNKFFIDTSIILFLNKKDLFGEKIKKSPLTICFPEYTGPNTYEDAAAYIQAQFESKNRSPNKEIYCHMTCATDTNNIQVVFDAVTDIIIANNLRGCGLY

These compounds were tested against Guanine nucleotide-binding protein G(o) subunit alpha (Homo sapiens) (UniProt P09471) (assay: RGS7-Galphao binding modulators, primary screen, biochemical, multiplexed bead flow cytometry (AID 1439;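 further: fluorescent Galphao held in activated GDP-AlF4 state binding bead-coupled RGS7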)). Details: at 10 µM, actives lie on both sides.

| Compound | binding response (% of control) |
| --- | --- |
| O=C1CN(C(=O)CNCc2ccc(Cl)cc2)c2ccccc2N1 | inconclusive: 66.8% |
| Cc1cnc(NC(=O)c2ccccn2)s1 | inconclusive: 272% |
| CC(C)C(C)NC(=O)COc1ccc(S(=O)(=O)N2CCOCC2)cc1Cl (configuration not stated) | inconclusive: 96.3% |
| Cc1ccc(NC(=O)c2ccc3c(c2)C(=O)N(CC2CCCO2)C3=O)cc1C (configuration not stated) | inactive: 103% |
| O=C(CSc1ccc(F)cc1)NCCSc1ccccc1 | inactive: 104% |
| CN(C)S(=O)(=O)N1CCN(c2ccc([N+](=O)[O-])c(N3CCCCC3)c2)CC1 | inactive: 97.6% |
| O=C(N/N=C/c1ccccn1)c1[nH]c2ccc([N+](=O)[O-])cc2c1-c1ccccc1 | inconclusive: 101% |
| O=C1c2ccccc2C(=O)N1CC1CCCO1 (configuration not stated) | inactive: 97.9% |
| O=C(CN1CCN(c2ccccc2F)CC1)NC(=O)NCc1ccco1 | inactive: 97.9% |
| O=C(N/N=C/c1ccccn1)c1cccnc1 | inconclusive: 2.7% |
| CCCN1CCN(C(=S)Nc2ccc3nc(N4CCN(CC)CC4)cc(C)c3c2)CC1 | inconclusive: 104% |
| COc1cc(/C=C(\C#N)C(=O)N2CCOCC2)ccc1OCc1ccccc1 | inconclusive: 98.7% |
| CCOc1cc(/C=N/O)ccc1OCc1ccc([N+](=O)[O-])cc1 | inactive: 101% |
| CC(=O)c1sc(N/N=C\c2ccccc2O)nc1C | inactive: 99.1% |
| CCCc1cc(=O)[nH]c(SCC(=O)c2ccc3c(c2)NC(=O)CO3)n1 | inconclusive: 796% |
| COCCN1CCC(CNCc2c(C(=O)N3CCCCC3)nc3c(C)cccn23)C1 (configuration not stated) | inconclusive: 132% |
| O=c1[nH]c(-c2ccc(O)cc2)nc2scc(-c3cccs3)c12 | inconclusive: 212% |
| COc1cc(O)c(C(CC(=O)N2CCN(c3ccccc3)CC2)c2ccc(N(C)C)cc2)c(OC)c1 (configuration not stated) | inconclusive: 112% |
| CC(C)(C)NC(=O)N1CCCN(c2ccc(C(F)(F)F)cn2)CC1 | inconclusive: 138% |
| CCOC(=O)c1c(C)nc(C)c(C(=O)OCC)c1-c1ccco1 | inconclusive: 39.1% |
| Cc1cc(NS(=O)(=O)c2ccc3c(c2)OCCO3)no1 | inconclusive: -137% |
| O=C1C=CC(=O)N1c1ccc(Sc2ccc([N+](=O)[O-])cc2)cc1 | inconclusive: 262% |
| CN(C)/C=C1\SC(=S)N(N2C(=O)C3C4C=CC(C4)C3C2=O)C1=O (configuration not stated) | inactive: 105% |

| Compound | binding response (% of control) |
| --- | --- |
| O=C1Nc2ccc(Br)cc2C12NNc1ccccc1O2 (configuration not stated) | inconclusive: 109% |
| NC(=O)CC(NC(=O)Cc1ccc(Cl)cc1)c1ccc(NCC2CC2)c([N+](=O)[O-])c1 (configuration not stated) | inconclusive: 118% |
| CCOC(=O)c1sc(=S)n(Cc2ccccc2)c1C | inconclusive: 124% |
| Cc1ccc(NC(=S)NC(=O)/C=C/c2ccco2)c(O)c1 | inconclusive: 51% |
| Cc1ccc2cccc(OCC(=O)Nc3ccc(N4CCOCC4)cc3)c2n1 | inconclusive: 64.5% |
| Cc1c(NC(=S)N2CCN(c3cccc(Cl)c3)CC2)c(=O)n(-c2ccccc2)n1C | inconclusive: 105% |
| Cc1cc(NC(=O)CN2C(=O)NC3(CCC(C)CC3)C2=O)no1 (configuration not stated) | active: 23.1% |
| c1ccc(-c2ccc(C3=Nn4c(nnc4-c4cccs4)SC3)cc2)cc1 | inconclusive: 96.6% |
| O=C(CN1CCC(C(=O)O)CC1)Nc1ccccc1Oc1ccccc1 | inconclusive: 65.5% |
| CNc1ccccc1NC(=O)CCn1c(=S)oc2ccccc21 | inconclusive: 105% |
| Cn1c(=O)cc(Cl)[nH]c1=O | inconclusive: 100% |
| CCN(CC)S(=O)(=O)c1cccc(NC(=O)COC(=O)c2cc(=O)c3ccccc3o2)c1 | inactive: 97.1% |
| Cc1c(C(=O)N/N=C/c2cccs2)nc2ccccn12 | inactive: 99.2% |
| COc1cc(/C=C/C(=O)N2c3ccccc3Sc3ccc(C(F)(F)F)cc32)cc(OC)c1OC | inactive: 104% |
| COc1ccc(CCNS(=O)(=O)c2cnc(Cl)c(Br)c2)cc1OC | inconclusive: 90.4% |
| Cc1c(C(=O)N/N=C/c2ccc(N(C)C)cc2)[nH]c2ccc(Cl)cc12 | inactive: 95% |
| Cc1cc(C)nc(/N=C2\NC(=O)CC(C(=O)O)N2c2cccc(Cl)c2)n1 (configuration not stated) | inconclusive: 103% |
| O=C(NP(=O)(N1CCOCC1)N1CCOCC1)C1=C(N2CCOCC2)/C(=C\c2ccccc2)CC1 | inconclusive: 68.1% |
| CC(C)Oc1ccc(C(=O)Nc2cccc3cccnc23)cc1 | inconclusive: 112% |
| O=c1[nH]c(/C=C\c2cccs2)nc(O)c1[N+](=O)[O-] | inactive: 100% |
| C=CCNc1oc(-c2cccs2)nc1S(=O)(=O)c1ccccc1 | inconclusive: 120% |
| CCN1C(=O)/C(=C/C2=Cc3ccccc3OC2C)SC1=S (configuration not stated) | inconclusive: 177% |
| COc1cc(C)c(NC(=S)NCCCN2CCOCC2)cc1OC | inconclusive: 95.5% |

| Compound | binding response (% of control) |
| --- | --- |
| Nc1ccc(N2CCCCC2)c(S(=O)(=O)Nc2ccc(Cl)cc2)c1 | inconclusive: 106% |
| Cc1cc(N2CCN(C)CC2)nc2ccc(NC(=S)N3CCCCC3)cc12 | inconclusive: 85.3% |
| CC(C)N(C)CCOC(=O)C1COc2ccccc2O1 (configuration not stated) | inconclusive: 113% |
| CCOC(=O)C1=NOC(Cn2cc(C(C)=O)c(=O)[nH]c2=O)C1 (configuration not stated) | inactive: 100% |
| C=C(C)C(=O)N1CC2(CC(c3cccc(NC(=O)CCCCC)c3)=NO2)C[C@H]1C(N)=O (some centres not stated) | inconclusive: 106% |
| CC(C)=Cc1c(O)nc2ccccn2c1=O | inactive: 96.5% |
| CN(C)c1cccc2c(C=C(C#N)C#N)ccc(N(C)C)c12 | inactive: 93% |
| Cc1ccccc1-c1noc(-c2ccccc2C(=O)NCc2ccco2)n1 | inconclusive: 97.4% |
| CCC1(CC)Cc2ccccc2C(=O)N1 | inconclusive: -664% |
| Nc1nc(-c2ccccc2)[nH]c(=O)c1N | inactive: 114% |
| CC(C)C(=O)n1nc(-c2cccnc2)nc1NCc1cccs1 | inactive: 105% |
| Cc1c(NC(=O)c2cccs2)c(=O)n(-c2ccccc2)n1C | inactive: 101% |
| O=C(/C=C/c1ccc(F)cc1)c1ccc(N2CCOCC2)cc1 | inconclusive: 107% |
| Cc1ccc(NC(=O)NCc2ccc3c(c2)OCO3)cc1 | inactive: 97.2% |
| C/C(=N\NC(=O)C(O)(c1ccccc1)c1ccccc1)c1ccc(C)o1 | inactive: 97.6% |
| COc1ccccc1/C=C/C=C1\Oc2c(ccc(O)c2CN(C)C)C1=O | inconclusive: 240% |
| Nc1cc(C(F)(F)F)ccc1N1CCOCC1 | inconclusive: 99.7% |
| CCc1ccc(N2C(=O)CC(N3CCN(c4ccccn4)CC3)C2=O)cc1 (configuration not stated) | inconclusive: 127% |
| CCc1nccn1S(=O)(=O)c1cc(OC)c(Cl)cc1OC | active: -75.7% |
| CCOP(=O)(OCC)c1nc(Cc2ccccc2)oc1NCc1ccccc1 | inconclusive: 93.3% |
| C=CCN1c2ccccc2[C@]23C[C@@H](C(=O)OC)N=C2NC(C(=O)OC)=C(C(=O)OC)[C@H]13 | inconclusive: 125% |
| Cc1nc(-c2nnc(SCC(=O)Nc3cc(Cl)cc(Cl)c3)n2C)cs1 | inconclusive: 96.9% |
| N/C(=N\OC(=O)c1cccs1)c1ccc(Cl)cc1 | inconclusive: 82.1% |

| Compound | binding response (% of control) |
| --- | --- |
| C=CCNC(=O)CC(=O)N/N=C/c1cccc(C)c1 | inactive: 103% |
| CCN(CCNC(=O)Cn1cc2c(n1)CCCC2)c1ccccc1 | inactive: 101% |
| COc1ccc(OC)c(NC(=O)C(C)Oc2ccc(Br)cc2)c1 (configuration not stated) | inconclusive: 106% |
| COc1ccccc1/C=C/C=N/NC(=O)CN1CCN(Cc2ccccc2)CC1 | inconclusive: 87.7% |
| CC1=C(C(N)=O)C(c2cccs2)n2nc(-c3cccc(Cl)c3)nc2N1 (configuration not stated) | inactive: 101% |
| O=C(NCc1cccs1)c1cccnc1SCCS(=O)(=O)c1ccc(C(F)(F)F)cn1 | inconclusive: 114% |
| O=[N+]([O-])c1cc(/C=N/N2CCN(Cc3ccccc3)CC2)ccc1Cl | inconclusive: 78.5% |
| Cc1onc2c(=O)n(-c3ccccc3)nc(-c3ccccc3)c12 | inconclusive: 92.9% |
| CC1(c2nnc(-c3ccc(F)cc3)o2)CC(c2ccc([N+](=O)[O-])cc2)=NO1 (configuration not stated) | inconclusive: 107% |
| CCOc1ccc(Cl)cc1S(=O)(=O)NCc1ccccn1 | inconclusive: 105% |
| CCCOc1ccc(N2C(=O)CC(N(Cc3ccco3)C(=O)CC)C2=O)cc1 (configuration not stated) | inconclusive: 101% |
| NNC(=O)c1cc(-c2ccc(O)cc2)nc2ccc(Br)cc12 | inconclusive: 126% |
| COc1ccc(S(=O)(=O)n2nc(-n3c(C)ccc3C)c3c(F)cccc32)cc1OC | inconclusive: 124% |
| CC1(C)CC2(CCCN(CC(O)(c3ccccc3)c3ccccc3)C2)CCO1 (configuration not stated) | inconclusive: 93.2% |
| O=C(Nc1ccccc1)C1=C[C@H](c2ccc(C(F)(F)F)cc2)C[C@H](OCc2ccc(CO)cc2)O1 | inconclusive: 105% |
| Cc1ccc(S(=O)(=O)c2cnc3cc(C)nn3c2N)cc1 | inconclusive: 98% |
| COc1ccc(N2CCN(C(c3ccccc3)c3sc4nc(C)nn4c3O)CC2)cc1 (configuration not stated) | inconclusive: 109% |
| C=CCNC(=S)Nc1c(C(=O)OC)[nH]c2cc(OC)ccc12 | inconclusive: 90% |
| Cc1nc(-c2cccc(NC(=O)Cc3ccccc3)c2)cs1 | inconclusive: 75.6% |
| CC(C)c1onc(C(=O)NCc2ccccc2)c1[N+](=O)[O-] | inactive: 97.9% |
| Cc1nc(NC(=O)CN2CCC(O)(c3ccc(F)cc3)CC2)sc1C | inconclusive: 104% |
| O=C1CSC(c2ccc(Cl)cc2)N1c1cccnc1 (configuration not stated) | inconclusive: 217% |
| COc1ccc([N+](=O)[O-])cc1NC(=O)c1cncc(Br)c1 | inconclusive: 103% |

In the list so far, 2 have a COOH group:

| Compound | binding response (% of control) |
| --- | --- |
| O=C(CN1CCC(C(=O)O)CC1)Nc1ccccc1Oc1ccccc1 | inconclusive: 65.5% |
| Cc1cc(C)nc(/N=C2\NC(=O)CC(C(=O)O)N2c2cccc(Cl)c2)n1 (configuration not stated) | inconclusive: 103% |
